# For at least one entry, the source does not settle the construct or the ends of the probe. Weaker means in comparison with the reference protein, sequence or condition of that experiment. For some of these results: Protein sequences can lack the tags named with them.
# Chains of the proteins cited; added tags and fusions are not shown. Lines headed by an entry give the natural chain unless they say otherwise; changes in a name come on top.
# UniProt Q96JB3: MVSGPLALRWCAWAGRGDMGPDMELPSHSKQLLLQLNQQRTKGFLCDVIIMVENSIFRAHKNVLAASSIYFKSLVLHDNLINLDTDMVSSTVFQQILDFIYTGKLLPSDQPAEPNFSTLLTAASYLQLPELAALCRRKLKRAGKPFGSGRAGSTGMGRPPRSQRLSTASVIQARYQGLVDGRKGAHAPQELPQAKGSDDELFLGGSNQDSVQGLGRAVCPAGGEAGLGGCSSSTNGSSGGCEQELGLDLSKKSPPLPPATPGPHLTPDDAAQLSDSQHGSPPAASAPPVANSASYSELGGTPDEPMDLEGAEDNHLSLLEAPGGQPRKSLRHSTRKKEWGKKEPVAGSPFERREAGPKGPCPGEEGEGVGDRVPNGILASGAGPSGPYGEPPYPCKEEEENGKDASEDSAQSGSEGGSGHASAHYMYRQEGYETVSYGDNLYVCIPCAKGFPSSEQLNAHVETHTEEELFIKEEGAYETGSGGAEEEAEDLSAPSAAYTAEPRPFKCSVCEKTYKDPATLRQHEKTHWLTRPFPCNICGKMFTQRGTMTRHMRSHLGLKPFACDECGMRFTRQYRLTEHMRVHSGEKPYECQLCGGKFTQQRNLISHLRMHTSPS
# UniProt Q9UMR3: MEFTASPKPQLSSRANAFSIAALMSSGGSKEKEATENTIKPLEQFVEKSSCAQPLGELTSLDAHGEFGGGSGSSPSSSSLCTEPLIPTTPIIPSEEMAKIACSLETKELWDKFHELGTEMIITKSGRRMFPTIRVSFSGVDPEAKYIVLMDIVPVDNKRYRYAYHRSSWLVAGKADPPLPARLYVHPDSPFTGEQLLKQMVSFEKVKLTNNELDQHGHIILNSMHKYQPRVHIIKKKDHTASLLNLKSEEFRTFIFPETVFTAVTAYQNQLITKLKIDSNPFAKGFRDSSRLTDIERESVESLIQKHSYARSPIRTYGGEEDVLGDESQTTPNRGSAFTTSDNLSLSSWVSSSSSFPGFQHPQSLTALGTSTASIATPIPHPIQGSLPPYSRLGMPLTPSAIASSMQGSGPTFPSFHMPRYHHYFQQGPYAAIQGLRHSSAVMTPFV
# UniProt Q15796: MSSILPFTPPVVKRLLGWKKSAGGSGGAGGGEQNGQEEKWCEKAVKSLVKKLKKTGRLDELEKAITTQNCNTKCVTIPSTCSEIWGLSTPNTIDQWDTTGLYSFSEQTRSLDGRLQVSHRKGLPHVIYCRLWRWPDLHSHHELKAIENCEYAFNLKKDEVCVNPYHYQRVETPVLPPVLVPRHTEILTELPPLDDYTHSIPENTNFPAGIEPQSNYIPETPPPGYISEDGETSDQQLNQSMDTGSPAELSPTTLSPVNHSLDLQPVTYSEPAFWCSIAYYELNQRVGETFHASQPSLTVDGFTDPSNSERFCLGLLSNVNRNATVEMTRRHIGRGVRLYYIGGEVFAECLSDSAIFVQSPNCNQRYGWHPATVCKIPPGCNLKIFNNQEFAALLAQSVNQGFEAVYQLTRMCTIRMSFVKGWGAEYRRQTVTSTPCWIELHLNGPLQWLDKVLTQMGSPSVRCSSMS
# Experiments:
# Experiment in all cases: EMSA
# Conditions in all cases: EMSA: 150 mM KCl, 0.1 mM DTT, 0.1 mM EDTA, 10 mM Tris pH 7.4; 500-800 fmol probe, 0.1-2.0 ug protein in 15-20 ul; room temperature 20 min; 6% native PAGE; recombinant protein
# [1] = molecular target: T1, SRF (human) (UniProt P11831)
# T1 sequence (looked up, limits assumed): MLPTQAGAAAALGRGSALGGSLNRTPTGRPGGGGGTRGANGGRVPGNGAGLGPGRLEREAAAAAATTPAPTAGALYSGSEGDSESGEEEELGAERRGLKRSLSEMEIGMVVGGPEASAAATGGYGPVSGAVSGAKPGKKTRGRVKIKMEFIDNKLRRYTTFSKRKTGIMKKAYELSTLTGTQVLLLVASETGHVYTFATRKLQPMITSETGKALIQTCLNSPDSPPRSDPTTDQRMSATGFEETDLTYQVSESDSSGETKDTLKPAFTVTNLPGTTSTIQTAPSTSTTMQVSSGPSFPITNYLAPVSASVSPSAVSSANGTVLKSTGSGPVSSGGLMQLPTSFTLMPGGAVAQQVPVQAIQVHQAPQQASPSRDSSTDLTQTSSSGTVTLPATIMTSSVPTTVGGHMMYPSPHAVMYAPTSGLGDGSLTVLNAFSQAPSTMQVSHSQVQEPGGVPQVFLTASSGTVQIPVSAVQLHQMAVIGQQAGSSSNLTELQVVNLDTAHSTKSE
# [2] = molecular target: HIC2 (human) (UniProt Q96JB3)
# [3] = molecular target: TBX20 (human) (UniProt Q9UMR3)
# [4] = molecular target: SMAD2 (human) (UniProt Q15796)
sequence,measurement,setting,value
AATGCATCTGCTTGCTTCACTTGGCAGATTCCTCAAGAGT (double strand) [ADAMTS6-CRE REF],binding result,[1],binds more weakly
CCTGGTTCAGTTCTGCTACCCACCAGAGGGGTGATCTTG (double strand) [ACVRL1-CRE REF],binding result,[2],binds
CCTGGTTCAGTTCTGCTACGCACCAGAGGGGTGATCTTG (double strand) [ACVRL1-CRE ALT],binding result,[2],binds more weakly
GACTTGGTTTCCCACCTTTAAAGGG (double strand) [PIP4K2A-CRE ALT],binding result,[3],binds
GACTTGGTTTCCCATCTTTAAAGGG (double strand) [PIP4K2A-CRE REF],binding result,[3],binds more weakly
GAGGGAGGGGAGAAAATAGTATCGC (double strand) [GLB1L3-CRE ALT],binding result,[1],binds more weakly
GTATATGGCAGATGCGCCTGACAGCAATAACTGAAGAAT (double strand) [BCOR-CRE REF],binding result,[4],binds
GTATATGGCAGATGCGCTTGACAGCAATAACTGAAGAAT (double strand) [BCOR-CRE ALT],binding result,[4],binds more weakly
TTTAGACATGCACACTTCATGTATG (double strand) [MYOCD-CRE ALT],binding result,[3],binds
TTTAGACATGCATACTTCATGTATG (double strand) [MYOCD-CRE REF],binding result,[3],binds more weakly

# Reference: publication PMC11218660, “Functional dissection of human cardiac enhancers and noncoding de novo variants in congenital heart disease”
